In article PMC6874091:
Results are given in words; binding and its absence hold for the method and conditions named. For part of these data: Binding seen in cells or lysates may run through a third protein. Some entries that bind do so weakly or less than the wild type.

The chains behind the UniProt entries cited, without tags or fusion partners.
UniProt Q14258: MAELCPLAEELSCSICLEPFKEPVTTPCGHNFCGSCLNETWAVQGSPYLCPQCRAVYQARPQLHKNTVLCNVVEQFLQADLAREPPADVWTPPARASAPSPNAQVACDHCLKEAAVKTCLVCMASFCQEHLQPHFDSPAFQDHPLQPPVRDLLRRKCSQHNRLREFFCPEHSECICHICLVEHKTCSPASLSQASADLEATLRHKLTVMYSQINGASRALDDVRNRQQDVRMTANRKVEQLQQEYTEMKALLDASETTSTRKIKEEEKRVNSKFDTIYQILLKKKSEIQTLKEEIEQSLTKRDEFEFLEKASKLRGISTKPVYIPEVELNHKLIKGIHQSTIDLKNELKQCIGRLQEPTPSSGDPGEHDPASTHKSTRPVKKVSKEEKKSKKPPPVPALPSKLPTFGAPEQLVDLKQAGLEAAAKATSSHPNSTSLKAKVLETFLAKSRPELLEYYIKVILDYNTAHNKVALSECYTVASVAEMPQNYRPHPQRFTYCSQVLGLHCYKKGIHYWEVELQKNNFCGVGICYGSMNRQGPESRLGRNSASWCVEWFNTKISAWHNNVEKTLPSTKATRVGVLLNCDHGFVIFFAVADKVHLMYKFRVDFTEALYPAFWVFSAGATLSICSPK

Assays:
[1] = target: 6xHis-BPLF1 (amino acid 1-274), bacterially expressed (Epstein-Barr virus (EBV)) (UniProt P03186); assay: SEC; gel filtration of purified 6xHis-BPLF1 on Superdex 75 10/300 GL in 20 mM Tris-HCl pH 7.5, 150 mM NaCl; both purified
[2] = target: 3xFLAG-BPLF1-D86-90R (helix-2 mutant) (Epstein-Barr virus (EBV)) (UniProt P03186); assay: co-IP; FLAG-tagged BPLF1 constructs immunoprecipitated with anti-FLAG agarose from lysates of transfected HeLa cells (NP-40 lysis buffer, 4 h, eluted with FLAG peptide); blots probed for endogenous TRIM25, 14-3-3 and 14-3-3 isoforms; with or without phosphatase inhibitors
[3] = target: 3xFLAG-BPLF1 (amino acid residues 1-235), catalytically active N-terminal deconjugase domain of the Epstein-Barr virus large tegument protein BPLF1 (Epstein-Barr virus (EBV)) (UniProt P03186); assay: as above

“6xHis-BPLF1 (amino acid 1-274), bacterially expressed (from UniProt P03186 1-274) (domain or fragment)” was tested, and the binding [1] was “no binding”.
For “TRIM25 (endogenous) (from UniProt Q14258 1-630)”, the binding [2] was “binds” and the binding [3] was “binds”.
